# Values of other authors in patent publication US8039430B2 (University of Wollongong, priority 2005, dated 2011).
# At least one compound was matched to its structure with a doubt left.
# Tested on: MRSA isolates
# Details: 43 MRSA isolates from adults with community respiratory infections; cited from earlier work
structure (smiles),measurement,value
CCC[C@@H]1C[C@@H](C(=O)N[C@@H]([C@H]2O[C@H](SC)[C@H](O)[C@@H](O)[C@H]2O)[C@H](C)Cl)N(C)C1 [clindamycin],susceptibility rates,39%
